# Some entries share one result that the patent states for a list of compounds.
# Biological target: T1, mTOR (Rattus norvegicus, UniProt P42346)
# T1 construct: expressed in transfected cells; host or cells: 293T
# Assay: Immune complex assay of mTOR activity, compound added to extracts or immune complexes
# Assay type: biochemical
# Protocol: 293T cells were transfected with expression vectors for AU1-epitope tagged mTOR, HA-tagged raptor, and HA-tagged mLST8. After 24 h, the overexpressed mTOR was immunoprecipitated with AU1 antibodies, and immune complexes were incubated with increasing concentrations of FTS in a reaction mixture containing 2 mM [γ^32P] ATP (250 μCi/ml), 20 mM MnCl2, and 0.1 mg/ml purified recombinant histidine-tagged PHAS-1. After fifteen minutes the reaction was stopped by adding SDS sample buffer, and samples were subjected to SDS-PAGE. The amount of ^32P incorporated into PHAS-I was determined and expressed as a percentage of that incorporated in the absence of FTS. Mean values±the half the range of two experiments are presented. […]
# Samples of extracts from 293T cells overexpressing AU1-mTOR, HA-raptor, and HA-mLST8 were incubated for 1 h with increasing concentrations of FTS (●, ▴, ▪) or GTS (∘, Δ, □) before immunoprecipitations were conducted with anti-AU1 antibodies. mTOR kinase activity (●, ∘) was determined by measuring ^32P incorporation into [His^6]PHAS-I in immune complex kinases assays performed with [γ-^32P]ATP (see FIG. 14A). The relative amounts of HA-raptor (▴, Δ) and HA-mLST8 (▪, □) that coimmunoprecipitated with AU1-mTOR were determined after immunoblotting with anti-HA antibodies (see FIG. 14B). […]
structure (smiles),measurement,value
"COC[C@H]1OC(=O)c2coc3c2[C@@]1(C)C1=C(C3=O)[C@@H]2CCC(=O)[C@@]2(C)C[C@H]1OC(C)=O [wortmannin, reference compound]",decrease of mTOR activity,more than 80%

# Source: patent US20070037887A1, “Blockade of mtor to prevent a hormonal adaptive response” (University of Virginia Patent Foundation, priority 2003, published 2007)
